Some entries share one result that the patent states for a list of compounds.
Assay: Hygroscopicity by dynamic vapor sorption (DVS)
Type: physicochemical
Details: based on water uptake at 25° C./80% RH
Procedure: Hygroscopicity. DVS isotherm plot was collected at 25° C. to investigate the solid form stability as a function of humidity. All of Freebase Type E+F, L-Malate Type B, Succinate Type B and Mesylate Type A were equilibrated at ambient humidity (70% RH or 80% RH) to prevent form change before testing.
DVS. Dynamic Vapor Sorption (DVS) was measured via a SMS (Surface Measurement Systems) DVS Intrinsic. The relative humidity at 25° C. was calibrated against deliquescence point of LiCl, Mg(NO3)2 and KCl.

SMILES: COc1cc(N2CCN(C)CC2)c(Cl)cc1Nc1ncc(Cl)c(Nc2cccnc2N2CCCC2=O)n1 [Succinate Type B]
- Hygroscopicity (class): hygroscopic (hygroscopic - 2~15%)

— US20240091226A1, “Forms and Formulations Of A Tyrosine Kinase Non-Receptor 1 (TNK1) Inhibitor” (Sumitomo Pharma Oncology, inc., priority 2021, published 2024)
